The text below walks through data of US8716260B2, “Use of S-adenosylmethionine, vitamin E, and vitamin C for the treatment of oxidative liver injury” (University of Manitoba, priority 2005, dated 2014).

This series has as its system Male Sprague-Dawley rats. The series can be described thus: Basal blood glucose level and mean arterial blood pressure. Format: in vivo, rat.

Molecules are shown by their SMILES.

`CC(=N)S` [TAA, thioacetamide] gave a basal glucose level (TAA 200 rats) of 96.5±3.0 mg %.

As for `CN1[C@@H]2CC[C@H]1C[C@@H](OC(=O)C(CO)c1ccccc1)C2` (some centres unmarked) [Atropine, atropine], the basal glucose level (normal rats, post atropine 0.1 mg.kg^−1) was 110.9±2.2 mg %.
